# Assay results

From PubChem BioAssay record AID504749 (NCATS, 2011).

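Malaria parasite (P. falciparum) lines kept in red blood cells; parasite DNA is measured by SYBR Green fluorescence after lysis, 72 h after compound addition.
Each compound was titrated across a series from about 0.000037 to 29 µM.
The number is the fitted AC50, the concentration giving a half-maximal change in signal; a lower value means higher potency, whether the curve shows a decrease or an increase.
Calls follow the curve class and fit quality: every row here is inconclusive, covering signal-raising curves and weak, poorly fitted, partial or highest-dose-only inhibition curves.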

Values are in nM.
All entries here are filed as inconclusive.
These entries are mostly ones the record files as inconclusive; other results of the assay are not listed here.
Potencies fitted to partial, single-point or poorly fitting curves are rough.
Some entries filed as inconclusive have a full curve.
The first word of each remark tells which way the curve ran; it can be opposite to the aim of the assay.

SMILES	condition	Potency (nM)	remark
Cc1nc2sccn2c(=O)c1CCN1CCC(=C(c2ccc(F)cc2)c2ccc(F)cc2)CC1	AA1029	11220	inhibitor, partial curve
Cc1nc2sccn2c(=O)c1CCN1CCC(=C(c2ccc(F)cc2)c2ccc(F)cc2)CC1	TAB109	11220	inhibitor, single point
Cc1nc2sccn2c(=O)c1CCN1CCC(=C(c2ccc(F)cc2)c2ccc(F)cc2)CC1	CP238	8912	inhibitor, single point
Cc1nc2sccn2c(=O)c1CCN1CCC(=C(c2ccc(F)cc2)c2ccc(F)cc2)CC1	DIV30	13459	inhibitor, partial curve
Cc1nc2sccn2c(=O)c1CCN1CCC(=C(c2ccc(F)cc2)c2ccc(F)cc2)CC1	DIV14	10690	inhibitor, partial curve
Cc1nc2sccn2c(=O)c1CCN1CCC(=C(c2ccc(F)cc2)c2ccc(F)cc2)CC1	CP247	10000	inhibitor, partial curve, poor fit
Cc1nc2sccn2c(=O)c1CCN1CCC(=C(c2ccc(F)cc2)c2ccc(F)cc2)CC1	W2	9528	inhibitor, partial curve, poor fit
Cc1nc2sccn2c(=O)c1CCN1CCC(=C(c2ccc(F)cc2)c2ccc(F)cc2)CC1	ATS95	15848	inhibitor, single point
Cc1nc2sccn2c(=O)c1CCN1CCC(=C(c2ccc(F)cc2)c2ccc(F)cc2)CC1	CP252	17782	inhibitor, single point
Cc1nc2sccn2c(=O)c1CCN1CCC(=C(c2ccc(F)cc2)c2ccc(F)cc2)CC1	CP237	11220	inhibitor, single point
Cc1nc2sccn2c(=O)c1CCN1CCC(=C(c2ccc(F)cc2)c2ccc(F)cc2)CC1	CP191	11220	inhibitor, single point
Cc1nc2sccn2c(=O)c1CCN1CCC(=C(c2ccc(F)cc2)c2ccc(F)cc2)CC1	CP260	12589	inhibitor, single point
Cc1nc2sccn2c(=O)c1CCN1CCC(=C(c2ccc(F)cc2)c2ccc(F)cc2)CC1	CP194	19011	inhibitor, single point
Cc1nc2sccn2c(=O)c1CCN1CCC(=C(c2ccc(F)cc2)c2ccc(F)cc2)CC1	ECU	17782	inhibitor, single point
Cc1nc2sccn2c(=O)c1CCN1CCC(=C(c2ccc(F)cc2)c2ccc(F)cc2)CC1	ATS189	11220	inhibitor, single point
Cc1nc2sccn2c(=O)c1CCN1CCC(=C(c2ccc(F)cc2)c2ccc(F)cc2)CC1	CP335	16944	inhibitor, single point
Cc1nc2sccn2c(=O)c1CCN1CCC(=C(c2ccc(F)cc2)c2ccc(F)cc2)CC1	SC27B	8912	inhibitor, single point
Cc1nc2sccn2c(=O)c1CCN1CCC(=C(c2ccc(F)cc2)c2ccc(F)cc2)CC1	CP215	16944	inhibitor, single point
Cc1nc2sccn2c(=O)c1CCN1CCC(=C(c2ccc(F)cc2)c2ccc(F)cc2)CC1	CP250	631	inhibitor, partial curve, poor fit
Cc1nc2sccn2c(=O)c1CCN1CCC(=C(c2ccc(F)cc2)c2ccc(F)cc2)CC1	CP269	15101	inhibitor, single point
Cc1nc2sccn2c(=O)c1CCN1CCC(=C(c2ccc(F)cc2)c2ccc(F)cc2)CC1	CP262	19011	activator, single point
CC(=O)Oc1c(C)cc(OCC(O)CNC(C)C)c(C)c1C (stereo not given)	W2	11995	inhibitor, partial curve, poor fit
CC(=O)Oc1c(C)cc(OCC(O)CNC(C)C)c(C)c1C (stereo not given)	GB4	5358	inhibitor, partial curve, poor fit
CCC(C)CCCCC(=O)NC(CCN)C(=O)NC(C(=O)NC(CCN)C(=O)NC1CCNC(=O)C(C(C)O)NC(=O)C(CCN)NC(=O)C(CCN)NC(=O)C(CC(C)C)NC(=O)C(Cc2ccccc2)NC(=O)C(CCN)NC1=O)C(C)O (stereo not given)	P93_24	3981	inhibitor, single point
CCC(C)CCCCC(=O)NC(CCN)C(=O)NC(C(=O)NC(CCN)C(=O)NC1CCNC(=O)C(C(C)O)NC(=O)C(CCN)NC(=O)C(CCN)NC(=O)C(CC(C)C)NC(=O)C(Cc2ccccc2)NC(=O)C(CCN)NC1=O)C(C)O (stereo not given)	TAB165	3162	inhibitor, single point
CCC(C)CCCCC(=O)NC(CCN)C(=O)NC(C(=O)NC(CCN)C(=O)NC1CCNC(=O)C(C(C)O)NC(=O)C(CCN)NC(=O)C(CCN)NC(=O)C(CC(C)C)NC(=O)C(Cc2ccccc2)NC(=O)C(CCN)NC1=O)C(C)O (stereo not given)	CP217	3548	inhibitor, single point
CCC(C)CCCCC(=O)NC(CCN)C(=O)NC(C(=O)NC(CCN)C(=O)NC1CCNC(=O)C(C(C)O)NC(=O)C(CCN)NC(=O)C(CCN)NC(=O)C(CC(C)C)NC(=O)C(Cc2ccccc2)NC(=O)C(CCN)NC1=O)C(C)O (stereo not given)	parasite line A	3981	inhibitor, single point
CCCCC(=O)OCC(=O)[C@]1(O)Cc2c(O)c3c(c(O)c2[C@H](OC2CC(NC(=O)C(F)(F)F)C(O)C(C)O2)C1)C(=O)c1c(OC)cccc1C3=O (stereo not given in full)	JCK	10000	inhibitor, single point
CCCCC(=O)OCC(=O)[C@]1(O)Cc2c(O)c3c(c(O)c2[C@H](OC2CC(NC(=O)C(F)(F)F)C(O)C(C)O2)C1)C(=O)c1c(OC)cccc1C3=O (stereo not given in full)	PC49	12589	inhibitor, single point
CCCOc1cc(N)ccc1C(=O)OCCN(CC)CC	CP269	454.8	inhibitor, partial curve, poor fit
CCCOc1cc(N)ccc1C(=O)OCCN(CC)CC	CP256	10000	inhibitor, single point
CCCOc1cc(N)ccc1C(=O)OCCN(CC)CC	CP325	227.9	inhibitor, full curve, poor fit
CCCOc1cc(N)ccc1C(=O)OCCN(CC)CC	CP297	7208	inhibitor, single point
CCCOc1cc(N)ccc1C(=O)OCCN(CC)CC	CP335	642.4	activator, partial curve, poor fit
CCCOc1cc(N)ccc1C(=O)OCCN(CC)CC	DIV30	32.2	activator, full curve
CCCOc1cc(N)ccc1C(=O)OCCN(CC)CC	CP247	8912	activator, single point
CCCOc1cc(N)ccc1C(=O)OCCN(CC)CC	CP315	1282	inhibitor, partial curve, poor fit
CCCOc1cc(N)ccc1C(=O)OCCN(CC)CC	CP211	1282	activator
COCCOC(=O)C1=C(C)NC(C)=C(C(=O)OC(C)C)C1c1cccc([N+](=O)[O-])c1 (stereo not given)	PAD	10000	inhibitor, single point
COCCOC(=O)C1=C(C)NC(C)=C(C(=O)OC(C)C)C1c1cccc([N+](=O)[O-])c1 (stereo not given)	CP238	12589	inhibitor, single point
COCCOC(=O)C1=C(C)NC(C)=C(C(=O)OC(C)C)C1c1cccc([N+](=O)[O-])c1 (stereo not given)	CP252	11220	inhibitor, single point
COCCOC(=O)C1=C(C)NC(C)=C(C(=O)OC(C)C)C1c1cccc([N+](=O)[O-])c1 (stereo not given)	GB4	8492	inhibitor, partial curve
COCCOC(=O)C1=C(C)NC(C)=C(C(=O)OC(C)C)C1c1cccc([N+](=O)[O-])c1 (stereo not given)	CP305	16944	inhibitor, single point
COCCOC(=O)C1=C(C)NC(C)=C(C(=O)OC(C)C)C1c1cccc([N+](=O)[O-])c1 (stereo not given)	CP194	13459	inhibitor, partial curve
COCCOC(=O)C1=C(C)NC(C)=C(C(=O)OC(C)C)C1c1cccc([N+](=O)[O-])c1 (stereo not given)	CP291	15101	inhibitor, single point

For reference, 6 entries once more:

- Cc1nc2sccn2c(=O)c1CCN1CCC(=C(c2ccc(F)cc2)c2ccc(F)cc2)CC1 [CP194] | Potency 19011 nM (inhibitor, single point)
- CCC(C)CCCCC(=O)NC(CCN)C(=O)NC(C(=O)NC(CCN)C(=O)NC1CCNC(=O)C(C(C)O)NC(=O)C(CCN)NC(=O)C(CCN)NC(=O)C(CC(C)C)NC(=O)C(Cc2ccccc2)NC(=O)C(CCN)NC1=O)C(C)O (stereo not given) [P93_24] | Potency 3981 nM (inhibitor, single point)
- Cc1nc2sccn2c(=O)c1CCN1CCC(=C(c2ccc(F)cc2)c2ccc(F)cc2)CC1 [CP250] | Potency 631 nM (inhibitor, partial curve, poor fit)
- CCCOc1cc(N)ccc1C(=O)OCCN(CC)CC [CP335] | Potency 642.4 nM (activator, partial curve, poor fit)
- CCCOc1cc(N)ccc1C(=O)OCCN(CC)CC [CP269] | Potency 454.8 nM (inhibitor, partial curve, poor fit)
- CCC(C)CCCCC(=O)NC(CCN)C(=O)NC(C(=O)NC(CCN)C(=O)NC1CCNC(=O)C(C(C)O)NC(=O)C(CCN)NC(=O)C(CCN)NC(=O)C(CC(C)C)NC(=O)C(Cc2ccccc2)NC(=O)C(CCN)NC1=O)C(C)O (stereo not given) [parasite line A] | Potency 3981 nM (inhibitor, single point)